The values that follow come from US11185522B2, “Cilastatin for use in the treatment of sepsis” (FUNDACIÓN PARA LA INVESTIGACIÓN BIOMÉDICA DEL HOSPITAL …, priority 2016, dated 2021).

The test system of the data set is CLP-induced sepsis rats. Particulars: mean±s.e.m. How it is done:
Sepsis was developed by cecal ligation puncture model (CLP) as described in several papers (Li G et al, Clin Exp Pharmacol Physiol. 2014; 41(7):459-68, Seija M et al, Shock. 2012; 38(4):403-10). Animals were anesthetized with ketamine (Ketolar 50 mg/ml) 90 mg/kg intraperitoneal (ip) and diazepam (Valium 10 mg/2 mL) 5 mg/kg ip. Under sterile conditions a 3-cm midline laparotomy was performed to allow exposure of the cecum, and a 4-0 silk ligature was placed 0.75 cm from the cecal tip. It was punctured once with a 14-gauge needle. A second ligature was placed 1.5 cm proximal to the first one and distal to the ileocecal valve to avoid intestinal obstruction. Three punctures were made in the cecum between the two ligatures with a 16-gauge needle. The cecum was gently squeezed until a 1-mm column of fecal material was exteriorized. The bowel was then returned to the abdomen and the incision was closed in layers. A sham operation (laparotomy and cecal exposure without any other manipulation) was performed as control. At the end of the operation, all rats were resuscitated with normal saline (50 ml/kg body weight) subcutaneously in a single dose and analgesic treatment with buprenorphine (buprex 0.3 mg/ml) 0.1 mg/kg every 12 hours immediately after surgery and until the day of killing.
Serum creatinine, blood urea nitrogen levels (BUN), proteins and other parameters were measured using the Dimension RxL autoanalyzer (Dade-Behring, Siemens, Eschborn, Germany). The glomerular filtration rate was calculated using the creatinine clearance rate.
The animals were randomly allocated into four groups (n=10 in each group): • i. sham-operated group, • ii. CLP group, • iii. sham-operated group+cilastatin, and • iv. CLP group+cilastatin.
In the treatment groups, the rats were treated with cilastatin 150 mg/kg ip immediately and at 24 h after induction of sepsis or the sham-operation. Cilastatin was substituted by vehicle (0.5 mL/100 g) in the non-treatment groups. […] All animals were then placed in the metabolic cages for 24-h urine collection.
Forty-eight (48) hours after the sepsis-induction/sham-operation, all rats were anesthetized with ketamine (10 mg/kg) and diazepam (4 mg/kg) and killed. Blood samples were collected by insertion of a cannula into the abdominal aorta, and serum was isolated by centrifugation in ACUETTE® Z Serum Sep Clot Activator tubes (Greiner bio-one), at 2000 rpm for 15 h at 4° C., and then stored at −80° C. until use. The kidneys were perfused with cold saline and quickly removed. Kidney samples were snap-frozen in liquid nitrogen and kept at −80° C. or fixed in 4% paraformaldehyde (24 h) and paraffin-embedded for the different studies.

[1] abbreviates: SHAM+cil group, 48 hours after sham operation, cilastatin 150 mg/kg ip immediately and at 24 h.

The structures appear in SMILES notation.

Turning to `CC1(C)C[C@@H]1C(=O)N/C(=C\CCCCSC[C@H](N)C(=O)O)C(=O)O` [cilastatin, (Z)-7-[(2R)-2-Amino-3-hydroxy-3-oxopropyl]sulfanyl-2-{[(1S)-2,2-dimethylcyclopropanecarbonyl]amino}hept-2-enoic acid], where the note is “SHAM+cil group (second value, group not labelled), 48 hours, cilastatin 150 mg/kg ip”, the Proteinuria came out at 1983±226. Under setting [1], this molecule gave a Blood urea nitrogen of 81±4 and a Serum creatinine of 0.46±0.01. Further, the Glomerular filtration rate (SHAM+cil group, 48 hours, calculated using the creatinine clearance rate, cilastatin 150 mg/kg ip) was 0.38±0.06.
